Where a name gives a salt, the structure may show the parent alone. ± gives the standard deviation of the averaged measurements. The list shows a part of the results.
Tested on: APPdp1-6 iPSC-derived neurons
Assay: pThr231Tau/total Tau ratio Z-score vs DMSO vehicle wells; higher = more pThr231Tau relative to total Tau
Conditions: 5 µM; treatment time 5 days

Compound	pThr231Tau/total Tau ratio Z-score
CN(C)c1ccc2nc3ccc(=[N+](C)C)cc-3sc2c1 [METHYLENE BLUE, antimethemoglobinemic, cyanide antidote]	-1.36 ± 0.079
C[N+]1(C)CCCC(OC(=O)C(O)(c2ccccc2)c2ccccc2)C1 (configuration not stated) [Prestw-653]	0.321 ± 0.094
C=CCc1ccc(OC)cc1 [ANETHOLE    ex anise, fennel and other plant oils]	-0.224 ± 0.053
CC[C@@H](C)C(=O)O[C@H]1[C@H](O)[C@H]2[C@@H](CN3C[C@@H](C)CC[C@H]3[C@@]2(C)O)[C@@H]2C[C@]34O[C@]5(O)[C@@H](OC(=O)[C@@](C)(O)CC)CC[C@@]3(C)[C@@H]5[C@@H](OC(C)=O)[C@@H](OC(C)=O)[C@H]4[C@@]21O	-1.57 ± 0.82
NCC1(CC(=O)O)CCCCC1 [Prestw-861]	0.843 ± 0.49
NCC1(CC(=O)O)CCCCC1 [GABAPENTIN, anticonvulsant]	-0.0536 ± 0.74
O=c1cccc2n1C[C@@H]1CNC[C@H]2C1	0.711 ± 0.13
COc1ccc(OC)c([C@@H](O)[C@H](C)N)c1 [Prestw-535]	1.6 ± 0.84
OCC(S)CS (configuration not stated)	-0.451 ± 0.096
O=C(CCCN1CCC2(CC1)C(=O)NCN2c1ccccc1)c1ccc(F)cc1 [Prestw-288]	1.7 ± 0.61
C=C1CC[C@@]2(O)[C@H]3Cc4ccc(O)c5c4[C@@]2(CCN3CC2CC2)[C@H]1O5 [Prestw-1490]	-0.379 ± 0.24
O=[N+]([O-])O[C@H]1CO[C@H]2[C@@H]1OC[C@H]2O[N+](=O)[O-] [Prestw-714]	-0.792 ± 0.65
CC(O)(CS(=O)(=O)c1ccc(F)cc1)C(=O)Nc1ccc(C#N)c(C(F)(F)F)c1 (configuration not stated) [Prestw-1239]	-0.0449 ± 0.48
CCOC(=O)c1cncn1[C@H](C)c1ccccc1 [Prestw-1041]	1.33 ± 0.56
CC[C@@H](CO)NC(=O)[C@@H]1C=C2c3cccc4[nH]cc(c34)C[C@H]2N(C)C1 [Prestw-374]	0.821 ± 1.4
CCC1(C2=NCCN2)Cc2ccccc2O1 (configuration not stated) [I1 Imidazoline binding site antagonist]	1.01 ± 3.9
CCCCOC(=O)c1ccccc1C(=O)OCCCC	0.183 ± 2.1
O=C(O)c1nn(Cc2ccc(Cl)cc2Cl)c2ccccc12	0.296 ± 0.82
COc1ccc2c(c1OC)C(=O)O[C@@H]2[C@H]1c2cc3c(cc2CCN1C)OCO3	1.07 ± 0.79
Cc1cc(C(C#N)c2ccc(Cl)cc2)c(Cl)cc1NC(=O)c1cc(I)cc(I)c1O (configuration not stated) [Prestw-1385]	-0.567 ± 0.71
C[C@@H]1C[C@@H]([C@H](O)CC2CC(=O)NC(=O)C2)C(=O)[C@@H](C)C1 [Prestw-790]	-1.52 ± 0.73
O=c1[nH]oc2c1CCNC2 [Prestw-972]	0.279 ± 1.4
CC1C=CC=CCCC=CC=CC=CC=CC(OC2OC(C)C(O)C(N)C2O)CC2OC(O)(CC(O)C(O)CCC(O)CC(O)CC(O)CC(=O)OC(C)C(C)C1O)CC(O)C2C(=O)O (configuration not stated) [Prestw-517]	-0.905 ± 0.49

Compound	pThr231Tau/total Tau ratio Z-score
COc1cc2c(c(OC)c1OC)-c1ccc(OC)c(=O)cc1[C@@H](NC(C)=O)CC2 [Prestw-363]	4.72 ± 12
CC[C@@H](CO)NC(=O)[C@@H]1C=C2c3cccc4c3c(cn4C)C[C@H]2N(C)C1	-0.573 ± 0.67
C[C@]12CC[C@H](O)CC1=CC[C@@H]1[C@@H]2CC[C@]2(C)C(=O)CC[C@@H]12	0.999 ± 0.53
c1ccc2c(c1)OCC(C1=NCCN1)O2 (configuration not stated) [Prestw-926]	-0.293 ± 1.1
CCCCCC[C@H]1C(=O)O[C@H](C)[C@H](NC(=O)c2cccc(NC=O)c2O)C(=O)O[C@@H](C)[C@@H]1OC(=O)CC(C)C [Prestw-222]	-3.17 ± 1.3
CC[N+]1(C)CCCC(OC(=O)C(O)(c2ccccc2)c2ccccc2)C1 (configuration not stated) [Prestw-760]	-0.524 ± 1.5
CC(C)c1cccc(C(C)C)c1O [Prestw-931]	2.23 ± 1.5
C[C@]12CC[C@H](O)C[C@H]1CC[C@@H]1[C@@H]2CC[C@]2(C)[C@@H](C3=CC(=O)OC3)CC[C@]12O [Prestw-436]	-3.96 ± 0.4
CC(=O)O[C@H]1CC[C@@]2(C)C(=CC[C@@H]3[C@@H]2CC[C@]2(C)C(=O)CC[C@@H]32)C1 [Prestw-937]	0.187 ± 0.7
O=C(NCNC(=O)NC1C(=O)NC(=O)N1CO)NC1C(=O)NC(=O)N1CO (configuration not stated) [Prestw-1071]	0.179 ± 0.33
CN1C[C@H](CNC(=O)OCc2ccccc2)C[C@@H]2c3cccc4c3c(cn4C)C[C@H]21 [Prestw-364]	-2.17 ± 2.3
Oc1ccc2c3c1O[C@H]1[C@@H](O)CC[C@@]4(O)[C@@H](C2)N(CC2CCC2)CC[C@]314 [Prestw-118]	-1.01 ± 0.012
CCCC(C)C1(CC)C(=O)NC(=O)NC1=O (configuration not stated) [Prestw-1491]	1.15 ± 0.15
C[C@]12C[C@H]3S[C@H]3C[C@@H]1CC[C@@H]1[C@@H]2CC[C@]2(C)[C@@H](O)CC[C@@H]12 [Prestw-1006]	-0.0986 ± 0.64
COP(=O)(OC)C(O)C(Cl)(Cl)Cl (configuration not stated) [Prestw-51]	-0.0436 ± 0.26
ClC1C(Cl)C(Cl)C(Cl)C(Cl)C1Cl (configuration not stated) [LINDANE    (gamma-BHC)    Use: insecticide]	1.32 ± 1.3
C=CCN1CC[C@]23c4c5ccc(O)c4O[C@H]2C(=O)CC[C@@]3(O)[C@H]1C5 [Prestw-111]	-0.335 ± 0.51
C[C@]12CCC(=O)C=C1C=C[C@@H]1[C@@H]2CC[C@@]2(C)[C@H]1CC[C@@]2(O)CCC(=O)O [Prestw-148]	1.89 ± 2.7
CC[C@@H](C(=O)[C@@H](C)[C@@H](O)[C@H](C)[C@@H]1O[C@@H]([C@@H](CC)C(=O)O)CC[C@@H]1C)[C@H]1O[C@]2(C=C[C@@H](O)[C@]3(CC[C@@](C)([C@H]4CC[C@](O)(CC)[C@H](C)O4)O3)O2)[C@H](C)C[C@@H]1C	-5.88 ± 0.57
C(#CCN1CCCC1)CN1CCCC1 [Prestw-331]	-0.0731 ± 0.86
S=C=NCc1ccccc1	-0.0428 ± 0.16
COP(=O)(OC)OC=C(Cl)Cl [DICHLORVOS    Use: insecticide, cholinesterase inhibitor]	1.34 ± 1.1
C[C@]12CC[C@H]3[C@@H](CCC4=CC(=O)CC[C@@]43C)[C@@H]1CC[C@@H]2O	0.483 ± 0.65

Compound	pThr231Tau/total Tau ratio Z-score
O=c1c2ccccc2[se]n1-c1ccccc1 [Prestw-740]	0.266 ± 1
NCC(O)c1ccc(O)cc1 (configuration not stated) [Prestw-949]	-0.201 ± 0.27
C[N+]1([O-])[C@@H]2CC(OC(=O)[C@H](CO)c3ccccc3)C[C@H]1[C@@H]1O[C@@H]12 (some centres not stated) [Prestw-232]	-1.1 ± 1
C[N+]1(C)[C@@H]2CC(OC(=O)[C@H](CO)c3ccccc3)C[C@H]1[C@@H]1O[C@@H]12 (some centres not stated) [METHSCOPOLAMINE BROMIDE    Therap cat: anticholinergic]	0.253 ± 1.2
CC(=O)O[C@H]1C[C@@H]2CC[C@@H]3[C@H](CC[C@@]4(C)[C@H]3C[C@H]([N+]3(C)CCCCC3)[C@@H]4OC(C)=O)[C@@]2(C)C[C@@H]1[N+]1(C)CCCCC1 [Prestw-1034]	1.05 ± 0.25
CN[C@@H](C)[C@H](O)c1ccccc1	-0.713 ± 0.77
Cc1c(N)nc([C@H](CC(N)=O)NC[C@H](N)C(N)=O)nc1C(=O)N[C@H](C(=O)N[C@H](C)[C@@H](O)[C@H](C)C(=O)N[C@H](C(=O)NCCc1nc(-c2nc(C(=O)NCCC[S+](C)C)cs2)cs1)[C@@H](C)O)[C@@H](O[C@@H]1O[C@@H](CO)[C@@H](O)[C@H](O)[C@@H]1O[C@H]1O[C@H](CO)[C@@H](O)[C@H](OC(N)=O)[C@@H]1O)c1cnc[nH]1 [BLEOMYCIN (bleomycin B2 shown), antineoplastic]	-0.498 ± 0.4
O=C1CC[C@@]2(O)[C@H]3Cc4ccc(O)c5c4[C@@]2(CCN3CC2CC2)[C@H]1O5 [Prestw-116]	0.0187 ± 1.1
NC(=O)c1cc([N+](=O)[O-])cc([N+](=O)[O-])c1	0.549 ± 1.4
CN[C@@H]1[C@@H](O)[C@@H](O[C@@H]2[C@@H](O)[C@H](O[C@H]3O[C@H](CN)CC[C@H]3N)[C@@H](N)C[C@H]2N)OC[C@]1(C)O.CN[C@@H]1[C@@H](O)[C@@H](O[C@@H]2[C@@H](O)[C@H](O[C@H]3O[C@H]([C@@H](C)N)CC[C@H]3N)[C@@H](N)C[C@H]2N)OC[C@]1(C)O.CN[C@@H]1[C@@H](O)[C@@H](O[C@@H]2[C@@H](O)[C@H](O[C@H]3O[C@H]([C@@H](C)NC)CC[C@H]3N)[C@@H](N)C[C@H]2N)OC[C@]1(C)O [Prestw-160]	0.0738 ± 0.27
O=C(O)CCCO [SODIUM OXYBATE, anesthetic]	1.27 ± 0.56
CC(NC(C)(C)C)C(=O)c1cccc(Cl)c1 (configuration not stated) [Prestw-249]	0.164 ± 1.3
CN(C)[C@@H]1C(=O)C(C(N)=O)=C(O)[C@@]2(O)C(=O)C3=C(O)c4c(O)cccc4[C@@](C)(O)[C@H]3C[C@@H]12 [Prestw-140]	0.421 ± 0.045
NCC(CC(=O)O)c1ccc(Cl)cc1 (configuration not stated) [Prestw-85]	0.603 ± 0.34
C#C[C@]1(O)CC[C@H]2[C@@H]3CCC4=CC(=O)CCC4=C3C=C[C@@]21CC [Prestw-1267]	0.182 ± 1.1
CN[C@@H](C)[C@@H](O)c1ccccc1 [Pseudoephedrine]	2.06 ± 1.3
CN1C[C@H](C(=O)N[C@]2(C)O[C@@]3(O)[C@@H]4CCCN4C(=O)[C@H](Cc4ccccc4)N3C2=O)C=C2c3cccc4[nH]cc(c34)C[C@H]21 [ERGOTAMINE TARTRATE, analgesic, antimigraine]	1.78 ± 2.1
[O-][n+]1ccccc1[S-].[O-][n+]1ccccc1[S-].[Zn+2]	-3.33 ± 0.34
COc1ccc2c(c1)[C@]13CCCC[C@@H]1[C@H](C2)N(C)CC3 [Prestw-359]	0.683 ± 0.75
C=C[C@H]1CN2CC[C@H]1C[C@H]2[C@H](O)c1ccnc2ccccc12 [CINCHONIDINE    antimalarial    ex Cinchona spp]	0.738 ± 1
C=CC[C@]1(O)CC[C@H]2[C@@H]3CCC4=CC(=O)CCC4=C3C=C[C@@]21C [ALTRENOGEST, progestinantineoplastic]	1.01 ± 1.3

A section of the results above, for reference:
Compound	pThr231Tau/total Tau ratio Z-score
C[N+]1(C)[C@@H]2CC(OC(=O)[C@H](CO)c3ccccc3)C[C@H]1[C@@H]1O[C@@H]12 (some centres not stated) [METHSCOPOLAMINE BROMIDE    Therap cat: anticholinergic]	0.253 ± 1.2
CC(=O)O[C@H]1C[C@@H]2CC[C@@H]3[C@H](CC[C@@]4(C)[C@H]3C[C@H]([N+]3(C)CCCCC3)[C@@H]4OC(C)=O)[C@@]2(C)C[C@@H]1[N+]1(C)CCCCC1 [Prestw-1034]	1.05 ± 0.25
